Data published in paper PMC6210175.
No constants are given. Whether binding was seen depends on the method and setting. In cells and extracts the contact can be indirect. Some entries that bind do so weakly or less than the wild type.

Protein sequences, listed by entry. Tags and fused reporters are not part of them.
UniProt P38936: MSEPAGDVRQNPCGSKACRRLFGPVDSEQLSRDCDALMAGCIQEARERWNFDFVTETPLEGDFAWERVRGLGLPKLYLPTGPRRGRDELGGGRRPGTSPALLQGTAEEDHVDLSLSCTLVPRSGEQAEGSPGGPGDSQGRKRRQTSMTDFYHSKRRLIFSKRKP
UniProt O96017: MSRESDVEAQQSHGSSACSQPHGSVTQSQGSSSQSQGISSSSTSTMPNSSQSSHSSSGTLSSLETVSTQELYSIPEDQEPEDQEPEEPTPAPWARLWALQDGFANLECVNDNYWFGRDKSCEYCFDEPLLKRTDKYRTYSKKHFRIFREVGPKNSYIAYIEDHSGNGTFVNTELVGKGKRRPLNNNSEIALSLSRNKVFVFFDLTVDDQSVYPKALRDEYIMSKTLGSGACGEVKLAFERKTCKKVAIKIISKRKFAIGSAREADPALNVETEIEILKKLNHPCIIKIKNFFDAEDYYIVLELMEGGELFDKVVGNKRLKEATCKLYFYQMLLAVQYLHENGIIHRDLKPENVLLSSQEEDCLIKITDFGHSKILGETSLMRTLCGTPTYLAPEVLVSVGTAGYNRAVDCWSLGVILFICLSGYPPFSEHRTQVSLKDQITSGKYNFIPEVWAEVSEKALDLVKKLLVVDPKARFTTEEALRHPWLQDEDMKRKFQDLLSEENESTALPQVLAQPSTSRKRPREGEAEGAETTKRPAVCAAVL

Legend:
[1] = molecular target: p21 phosphorylated at threonine 145 (p-p21^T145) (human (endogenous in colorectal cancer cells)) (UniProt P38936); assay: co-IP; lysates of cells treated with rising 5FU concentrations; immunoprecipitated with the p-p21 antibody or the p21 antibody, Chk2 signal read (Figure S6a,b); method of these precipitations not described
[2] = molecular target: Chk2 phosphorylated at threonine 68 (p-Chk2^T68) (human (endogenous in HCT116 and HT29)) (UniProt O96017); assay: proximity ligation; Duo-link in situ PLA in fixed, permeabilised HT29 cells treated with 100 uM 5FU for 48 h; primary antibodies anti-p21 and anti-p-Chk2 (T68); signals mainly in the nuclei, a few in the cytoplasm
[3] = molecular target: Chk2 phosphorylated at threonine 68 (p-Chk2^T68) (human (endogenous in HCT116 and HT29)) (UniProt O96017); assay: co-IP; HCT116 cells treated with 5FU (25 and 100 uM) for 48 h, dead cells removed; cells fixed with 2% formaldehyde before lysis in RIPA buffer; 600-900 ug lysate with anti-p-Chk2(T68) antibody on magnetic Protein G beads overnight at 4 C; blot with anti-p21

Row | binding [1] | binding [2] | binding [3] | Substance
1 | binds | – | – | Chk2 (from UniProt O96017 1-543) (enzyme)
2 | – | binds | binds | p21 protein (also known as WAF1 or CIP1) (from UniProt P38936 1-164)
